Reference: PubChem BioAssay AID250 (DTP/NCI, 2004)
The list does not hold the whole screen: its compounds were picked by chemical class. Other doses and runs of a compound may be missing. T/C: endpoint of the treated group in % of that of the vehicle group. Some doses have a count of surviving animals in place of a T/C: the source holds a T/C of zero for them, seemingly a mark for toxic or unscored doses. Some doses without a T/C left all or most animals alive at the check, yet need not have been tolerated: survival well below the control is almost never listed, so the zero probably covers shortened survival too. For some assays here: Survivors were counted at the toxicity check, usually on the fifth day, unless a day is given; later deaths do not show. Schedule codes are those of the source, taken here to give the interval after Q, in days (D) or hours (H), and the number of doses after X. Some schedules carry Z or #; the key to these is not given. For survival time, this PubChem deposit counts one and a half times the control or more as active, and values a quarter to a half above the control carry no call in these data; other NCI protocols may use other cut-offs. Some T/C values are followed by the survivors on the day toxicity was checked, most often the fifth; without a count or a note in brackets, all were alive then.

Assays:
[1] = test system: BDF1 mice, L1210 leukemia sc; assay: NCI In Vivo Anticancer Drug Screen. Data for tumor model L1210 Leukemia (subcutaneous) in B6D2F1 (BDF1) mice; conditions: T/C endpoint: median survival time, higher T/C = longer survival
Method: (§1) The antitumor activity of compounds was measured in mice bearing transplantable tumors. Survival or tumor size were measured and the results are expressed as the measurement made in the treated group (T) divided by the measurement made in the vehicle treated control group (C). The tumor model used in this assay is L1210 Leukemia (subcutaneous) in B6D2F1 (BDF1) mice

[2] = test system: BDF1 mice, L1210 leukemia sc, survival T/C; assay: as above; conditions: T/C endpoint: median survival time, higher T/C = longer survival
Method: as §1

[3] = dose: 8.4 mg/kg/injection, schedule: Q01DX Z (sc), vehicle: saline
[4] = dose: 14.0 mg/kg/injection, schedule: Q01DX Z (sc), vehicle: saline

NC1CCCCC1.O=P(O)(NCCCO)N(CCCl)CCCl
T/C ([1]; dose: 300.0 mg/kg/injection, schedule: Q04DX003 (sc), vehicle: steroid suspending solution): 133 % of control
T/C ([1]; dose: 500.0 mg/kg/injection, schedule: Q01DX001 (ip), vehicle: steroid suspending solution): 138 % of control
T/C ([2]; dose: 108.0 mg/kg/injection, schedule: Q04DX003 (ip), vehicle: steroid suspending solution): 111 % of control
T/C ([2]; dose: 108.0 mg/kg/injection, schedule: Q04DX003 (sc), vehicle: steroid suspending solution): 111 % of control
T/C ([2]; dose: 180.0 mg/kg/injection, schedule: Q01DX001 (ip), vehicle: steroid suspending solution): 111 % of control
T/C ([2]; dose: 180.0 mg/kg/injection, schedule: Q01DX001 (sc), vehicle: steroid suspending solution): 111 % of control
T/C ([2]; dose: 180.0 mg/kg/injection, schedule: Q04DX003 (ip), vehicle: steroid suspending solution): 122 % of control
T/C ([2]; dose: 180.0 mg/kg/injection, schedule: Q04DX003 (sc), vehicle: steroid suspending solution): 111 % of control
T/C ([2]; dose: 300.0 mg/kg/injection, schedule: Q01DX001 (ip), vehicle: steroid suspending solution): 122 % of control
T/C ([2]; dose: 300.0 mg/kg/injection, schedule: Q01DX001 (sc), vehicle: steroid suspending solution): 111 % of control
T/C ([2]; dose: 300.0 mg/kg/injection, schedule: Q04DX003 (ip), vehicle: steroid suspending solution): 161 % of control
T/C ([2]; dose: 500.0 mg/kg/injection, schedule: Q01DX001 (sc), vehicle: steroid suspending solution): 88 % of control
T/C ([2]; dose: 500.0 mg/kg/injection, schedule: Q04DX003 (ip), vehicle: steroid suspending solution): 100 % of control
T/C ([2]; dose: 500.0 mg/kg/injection, schedule: Q04DX003 (sc), vehicle: steroid suspending solution): 88 % of control [7 of 8 alive]
survivor count ([2]; dose: 833.0 mg/kg/injection, schedule: Q01DX001 (ip), vehicle: steroid suspending solution): 7 of 8
survivor count ([2]; dose: 833.0 mg/kg/injection, schedule: Q01DX001 (sc), vehicle: steroid suspending solution): 2 of 8

OC(CNCCCl)C(O)C(O)C(O)CNCCCl (stereo not drawn)
T/C ([1]; dose: 39.0 mg/kg/injection, schedule: Q01DX008 (sc), vehicle: saline): 130 % of control
T/C ([1]; dose: 64.8 mg/kg/injection, schedule: Q01DX Z (sc), vehicle: saline): 127 % of control
T/C ([1]; dose: 65.0 mg/kg/injection, schedule: Q01DX008 (sc), vehicle: saline): 135 % of control [7 of 10 alive]
T/C ([2]; dose: 1.81 mg/kg/injection, schedule: Q01DX Z (sc), vehicle: saline): 100 % of control
T/C ([2]; dose: 3.02 mg/kg/injection, schedule: Q01DX Z (sc), vehicle: saline): 100 % of control
T/C ([2]; dose: 5.04 mg/kg/injection, schedule: Q01DX Z (sc), vehicle: saline): 95 % of control
T/C [2, 3]: 100 % of control
T/C ([2]; dose: 14.0 mg/kg/injection, schedule: Q01DX008 (sc), vehicle: saline): 100 % of control [7 of 10 alive]
T/C [2, 4]: 95 % of control
T/C ([2]; dose: 23.0 mg/kg/injection, schedule: Q01DX008 (sc), vehicle: saline): 110 % of control [8 of 10 alive]
T/C ([2]; dose: 23.3 mg/kg/injection, schedule: Q01DX Z (sc), vehicle: saline): 100 % of control
T/C ([2]; dose: 38.9 mg/kg/injection, schedule: Q01DX Z (sc), vehicle: saline): 109 % of control
T/C ([2]; dose: 108.0 mg/kg/injection, schedule: Q01DX008 (sc), vehicle: saline): 120 % of control [9 of 10 alive]
T/C ([2]; dose: 108.0 mg/kg/injection, schedule: Q01DX Z (sc), vehicle: saline): 118 % of control
T/C ([2]; dose: 180.0 mg/kg/injection, schedule: Q01DX008 (sc), vehicle: saline): 110 % of control [7 of 10 alive]
survivor count ([2]; dose: 300.0 mg/kg/injection, schedule: Q01DX008 (sc), vehicle: saline): 3 of 10

CN(CCCl)CC1OC(O)C(O)C(O)C1O (stereo not drawn)
survivor count ([2]; dose: 78.0 mg/kg/injection, schedule: Q01DX Z (sc), vehicle: methylcellulose (MC)): 1 of 8
survivor count ([2]; dose: 130.0 mg/kg/injection, schedule: Q01DX Z (sc), vehicle: methylcellulose (MC)): 3 of 8
survivor count ([2]; dose: 216.0 mg/kg/injection, schedule: Q01DX Z (sc), vehicle: methylcellulose (MC)): 3 of 8
survivor count ([2]; dose: 360.0 mg/kg/injection, schedule: Q01DX Z (sc), vehicle: methylcellulose (MC)): 1 of 8
survivor count ([2]; dose: 600.0 mg/kg/injection, schedule: Q01DX Z (sc), vehicle: methylcellulose (MC)): 0 of 8

ClCCN(Cc1ccccc1)Cc1cccs1
T/C ([2]; dose: 5.0 mg/kg/injection, schedule: Q01DX Z (sc), vehicle: saline): 100 % of control [9 of 10 alive]
T/C [2, 3]: 105 % of control [9 of 10 alive]
T/C [2, 4]: 100 % of control [8 of 10 alive]
T/C ([2]; dose: 23.0 mg/kg/injection, schedule: Q01DX Z (sc), vehicle: saline): 100 % of control [9 of 10 alive]
T/C ([2]; dose: 39.0 mg/kg/injection, schedule: Q01DX Z (sc), vehicle: saline): 100 % of control [8 of 10 alive]
T/C ([2]; dose: 65.0 mg/kg/injection, schedule: Q01DX Z (sc), vehicle: saline): 100 % of control [9 of 10 alive]

CCN(CCCl)Cc1ccc2c(c1)OCO2
T/C ([2]; dose: 8.4 mg/kg/injection, schedule: Q01DX Z (sc), vehicle: other): 100 % of control
T/C ([2]; dose: 14.0 mg/kg/injection, schedule: Q01DX Z (sc), vehicle: other): 95 % of control
T/C ([2]; dose: 23.0 mg/kg/injection, schedule: Q01DX Z (sc), vehicle: other): 95 % of control
T/C ([2]; dose: 39.0 mg/kg/injection, schedule: Q01DX Z (sc), vehicle: other): 100 % of control [9 of 10 alive]
survivor count ([2]; dose: 65.0 mg/kg/injection, schedule: Q01DX Z (sc), vehicle: other): 3 of 10
survivor count ([2]; dose: 108.0 mg/kg/injection, schedule: Q01DX Z (sc), vehicle: other): 0 of 10

CCOC(=O)COc1ccc(N(CCCl)CCCl)cc1
T/C ([2]; dose: 5.0 mg/kg/injection, schedule: Q01DX Z (sc), vehicle: carboxymethylcellulose (CMC)): 100 % of control
T/C ([2]; dose: 10.0 mg/kg/injection, schedule: Q01DX Z (sc), vehicle: carboxymethylcellulose (CMC)): 100 % of control
T/C ([2]; dose: 15.0 mg/kg/injection, schedule: Q01DX Z (sc), vehicle: carboxymethylcellulose (CMC)): 94 % of control
T/C ([2]; dose: 20.0 mg/kg/injection, schedule: Q01DX Z (sc), vehicle: carboxymethylcellulose (CMC)): 100 % of control
